Results are given in words; binding and its absence hold for the method and conditions named. Binding seen in cells or lysates may run through a third protein. Here binding means that the protein was enriched with, or labelled near, the bait; the list need not be complete. One block for each molecule: values may come before it.
Biological target: protein arginine methyltransferase 5 (PRMT5), endogenous in human EnSC (human (endogenous in human EnSC)) (UniProt O14744)
Test: affinity purification with mass spectrometry

Amino acid sequences for entries named in this document (tags omitted).
UniProt O14744: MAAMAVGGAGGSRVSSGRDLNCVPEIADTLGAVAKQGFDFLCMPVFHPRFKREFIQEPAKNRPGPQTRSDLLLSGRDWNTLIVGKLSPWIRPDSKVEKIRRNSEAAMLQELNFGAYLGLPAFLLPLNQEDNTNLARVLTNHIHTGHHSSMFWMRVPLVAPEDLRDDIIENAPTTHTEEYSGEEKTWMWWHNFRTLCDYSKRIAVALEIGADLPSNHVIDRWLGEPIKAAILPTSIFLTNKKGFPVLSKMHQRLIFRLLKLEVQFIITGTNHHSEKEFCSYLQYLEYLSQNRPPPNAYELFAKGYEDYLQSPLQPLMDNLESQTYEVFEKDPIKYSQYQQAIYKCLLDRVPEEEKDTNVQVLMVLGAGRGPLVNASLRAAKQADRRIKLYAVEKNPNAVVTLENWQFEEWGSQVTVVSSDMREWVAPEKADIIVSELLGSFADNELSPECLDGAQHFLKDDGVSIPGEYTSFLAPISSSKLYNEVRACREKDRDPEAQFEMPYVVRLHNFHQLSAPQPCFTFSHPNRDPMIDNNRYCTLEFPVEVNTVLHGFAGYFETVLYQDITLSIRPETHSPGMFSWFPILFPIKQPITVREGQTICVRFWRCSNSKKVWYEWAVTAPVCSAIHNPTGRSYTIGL
UniProt Q92570: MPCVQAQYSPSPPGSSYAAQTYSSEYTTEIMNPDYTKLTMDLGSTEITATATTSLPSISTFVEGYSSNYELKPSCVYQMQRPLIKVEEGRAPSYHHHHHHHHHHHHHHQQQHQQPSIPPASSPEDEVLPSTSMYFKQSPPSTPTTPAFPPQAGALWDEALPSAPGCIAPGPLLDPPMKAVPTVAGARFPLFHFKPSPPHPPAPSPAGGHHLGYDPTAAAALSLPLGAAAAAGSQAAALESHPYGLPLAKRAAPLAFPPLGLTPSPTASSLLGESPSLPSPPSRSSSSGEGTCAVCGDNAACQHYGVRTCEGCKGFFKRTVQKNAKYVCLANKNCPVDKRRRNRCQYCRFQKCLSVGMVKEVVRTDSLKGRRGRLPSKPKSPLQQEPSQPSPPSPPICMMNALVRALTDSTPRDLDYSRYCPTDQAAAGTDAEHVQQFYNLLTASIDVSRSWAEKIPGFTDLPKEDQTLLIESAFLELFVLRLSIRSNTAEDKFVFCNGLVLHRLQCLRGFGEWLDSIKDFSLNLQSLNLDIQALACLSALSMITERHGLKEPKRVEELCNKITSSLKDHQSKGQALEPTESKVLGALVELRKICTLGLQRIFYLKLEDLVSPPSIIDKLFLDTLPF

binding: binds
Molecule: NR4A3, endogenous in human EnSC (from UniProt Q92570 1-626)

binding: binds
B1: FAM120A, endogenous in human EnSC (protein, UniProt Q9NZB2 1-1118)
chain: MGVQGFQDYIEKHCPSAVVPVELQKLARGSLVGGGRQRPPQTPLRLLVDADNCLHRLYGGFYTDWVSGGQWNHMLGYLAALAKACFGGNIELFVFFNGALEKARLHEWVKRQGNERQTAQQIVSHVQNKGTPPPKVWFLPPVCMAHCIRLALIRFHVKVAQSIEDHHQEVIGFCRENGFHGLVAYDSDYALCNIPYYFSAHALKLSRNGKSLTTSQYLMHEVAKQLDLNPNRFPIFAALLGNHILPDEDLASFHWSLLGPEHPLASLKVRAHQLVLPPCDVVIKAVADYVRNIQDTSDLDAIAKDVFQHSQSRTDDKVIRFKRAIGYYSATSKPMSFHPPHYLAARPGPFGMPGMVPPHVPPQMLNIPQTSLQAKPVAPQVPSPGGAPGQGPYPYSLSEPAPLTLDTSGKNLTEQNSYSNIPHEGKHTPLYERSSPINPAQSGSPNHVDSAYFPGSSTSSSSDNDEGSGGATNHISGNKIGWEKTGSHSEPQARGDPGDQTKAEGSSTASSGSQLAEGKGSQMGTVQPIPCLLSMPTRNHMDITTPPLPPVAPEVLRVAEHRHKKGLMYPYIFHVLTKGEIKIAVSIEDEANKDLPPAALLYRPVRQYVYGVLFSLAESRKKTERLAFRKNRLPPEFSPVIIKEWAAYKGKSPQTPELVEALAFREWTCPNLKRLWLGKAVEDKNRRMRAFLACMRSDTPAMLNPANVPTHLMVLCCVLRYMVQWPGARILRRQELDAFLAQALSPKLYEPDQLQELKIENLDPRGIQLSALFMSGVDMALFANDACGQPIPWEHCCPWMYFDGKLFQSKLLKASREKTPLIDLCDGQADQAAKVEKMRQSVLEGLSFSRQSHTLPFPPPPALPFYPASAYPRHFGPVPPSQGRGRGFAGVCGFGGPYGETVATGPYRAFRVAAASGHCGAFSGSDSSRTSKSQGGVQPIPSQGGKLEIAGTVVGHWAGSRRGRGGRGPFPLQVVSVGGPARGRPRGVISTPVIRTFGRGGRYYGRGYKNQAAIQGRPPYAASAEEVAKELKSKSGESKSSAMSSDGSLAENGVMAEEKPAPQMNGSTGDARAPSHSESALNNDSKTCNTNPHLNALSTDSACRREAALEAAVLNKEE

Reference: paper doi:10.1101/2024.02.06.579055
